These results are taken from US12577259B2 (MERCK SHARP & DOHME LLC, priority 2019, dated 2026).

The data set in a line: general procedure: Fmoc solid-phase peptide synthesis; PS Rink-Amide MBHA resin; HATU/DIPEA; DIC/Oxyma. As to conditions: whole synthesis, scale 0.250 mmol, chloride after AG MP-1 resin exchange.

Consider Int-A (Reagent A), for which the crude mass is recorded as 399 mg.

Int-A (Reagent B) showed a crude mass of 300 mg.
